Data reported in paper PMC11589570, “Critical assessment of LC3/GABARAP ligands used for degrader development and ligandability of LC3/GABARAP binding pockets” (Nature Communications, 2024).
Where “and” joins values, the source holds several entries; their conditions need not be identical. Identical values can stand only once. The source gives many values for each of these; only a part stands here.

Test system: U2OS cells
Assay: Cell growth assay (IncuCyte confluence over 72 h)
Assay type: cell-based
Parameters: key: % of well area covered by cells (confluence)
Conditions: listed as AN1
Method in brief: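 U2OS cells were grown in DMEM with 10% FBS for 24 h before treatment. Confluence was then tracked by IncuCyte phase imaging over 72 h and expressed as % of well area covered by cells. Each point is the average of three wells.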

`O=C1Nc2ccc(Br)cc2C1=Cc1cc(O)c(O)c(Br)c1` [compound 1] was tested, and the U2OS cell growth (5 uM, time 8 h) was 47.9122 and 46.3183 and 49.7721, the U2OS cell growth (5 uM, time 22 h) was 63.5733 and 64.4251 and 76.2369 and the U2OS cell growth (5 uM, time 24 h) was 62.8422 and 66.3932 and 68.9175. For the same compound, the U2OS cell growth (5 uM, time 26 h) was 66.7035 and 68.7534 and 74.9824, the U2OS cell growth (5 uM, time 28 h) was 70.4883 and 71.9434 and 77.311 and the U2OS cell growth (5 uM, time 30 h) was 71.2918 and 69.1139 and 78.7744. The U2OS cell growth (5 uM, time 32 h) was 71.8875 and 70.974 and 76.8121, the U2OS cell growth (5 uM, time 34 h) was 70.5186 and 74.1959 and 71.985 and the U2OS cell growth (5 uM, time 36 h) was 76.9133 and 76.941 and 80.0108. For the same compound, the U2OS cell growth (5 uM, time 38 h) was 71.6701 and 75.2403 and 82.922, the U2OS cell growth (5 uM, time 40 h) was 80.0499 and 78.8143 and 87.8843 and the U2OS cell growth (5 uM, time 42 h) was 79.1864 and 81.7569 and 82.7144. The U2OS cell growth (5 uM, time 44 h) was 80.8255 and 83.4273 and 81.7035, the U2OS cell growth (5 uM, time 46 h) was 70.5884 and 79.7647 and 67.8016 and the U2OS cell growth (5 uM, time 48 h) was 81.2852 and 82.2351 and 90.0725. The U2OS cell growth (5 uM, time 50 h) was 78.485 and 80.9296 and 75.3419, the U2OS cell growth (5 uM, time 52 h) was 84.8538 and 85.861 and 92.0148 and the U2OS cell growth (5 uM, time 54 h) was 81.5977 and 83.7885 and 83.5295. For the same compound, the U2OS cell growth (5 uM, time 56 h) was 87.5569 and 89.4587 and 93.5821, the U2OS cell growth (5 uM, time 58 h) was 84.6921 and 91.3967 and 84.5216 and the U2OS cell growth (5 uM, time 60 h) was 93.4537 and 91.9419 and 95.9095. For the same compound, the U2OS cell growth (5 uM, time 62 h) was 91.9546 and 93.7695 and 96.3044, the U2OS cell growth (5 uM, time 64 h) was 91.8004 and 92.6286 and 91.7135 and the U2OS cell growth (5 uM, time 66 h) was 92.0972 and 95.8969 and 95.5896. The U2OS cell growth (5 uM, time 68 h) was 93.9858 and 97.1161 and 95.9589, the U2OS cell growth (5 uM, time 70 h) was 94.5074 and 95.1304 and 89.6492 and the U2OS cell growth (5 uM, time 72 h) was 96.933 and 98.1694 and 98.6119. The U2OS cell growth (10 uM, 20 h) was 59.3292 and 42.3026 and 51.6083, the U2OS cell growth (10 uM, 22 h) was 60.1123 and 47.7603 and 56.6268 and the U2OS cell growth (10 uM, 24 h) was 65.879 and 48.3199 and 58.8022. The U2OS cell growth (10 uM, 26 h) was 66.9171 and 49.8648 and 61.2924, the U2OS cell growth (10 uM, 28 h) was 68.6485 and 53.275 and 63.5375 and the U2OS cell growth (10 uM, 30 h) was 71.069 and 56.4855 and 69.12. The U2OS cell growth (10 uM, 32 h) was 71.5144 and 55.8267 and 69.4636, the U2OS cell growth (10 uM, 34 h) was 74.2435 and 59.7983 and 70.8226 and the U2OS cell growth (10 uM, 36 h) was 76.7284 and 65.4981 and 74.0155. The U2OS cell growth (10 uM, 38 h) was 78.9594 and 60.103 and 73.5391, the U2OS cell growth (10 uM, 40 h) was 82.7465 and 69.6911 and 78.5318 and the U2OS cell growth (10 uM, 42 h) was 86.0039 and 72.043 and 81.778. For the same compound, the U2OS cell growth (10 uM, 44 h) was 87.3728 and 75.5396 and 82.7497, the U2OS cell growth (10 uM, 46 h) was 86.443 and 77.4006 and 83.4639 and the U2OS cell growth (10 uM, 48 h) was 90.3014 and 79.9185 and 88.0979. For the same compound, the U2OS cell growth (10 uM, 52 h) was 93.1893 and 84.6225 and 90.2444, the U2OS cell growth (10 uM, 54 h) was 92.2143 and 85.5777 and 91.609 and the U2OS cell growth (10 uM, 56 h) was 94.8388 and 87.9431 and 92.9209. The U2OS cell growth (10 uM, 58 h) was 95.7648 and 90.7362 and 94.7322, the U2OS cell growth (10 uM, 60 h) was 96.7307 and 93.0491 and 95.2722 and the U2OS cell growth (10 uM, 62 h) was 97.3685 and 94.6473 and 95.8269. The U2OS cell growth (10 uM, 66 h) was 98.0655 and 94.8695 and 97.1788, the U2OS cell growth (10 uM, 68 h) was 98.3568 and 97.4017 and 97.5749 and the U2OS cell growth (10 uM, 72 h) was 99.1011 and 98.8136 and 98.7281. For the same compound, the U2OS cell growth (10 uM, time 0 h) was 41.6287 and 31.6065 and 36.3749, the U2OS cell growth (10 uM, time 2 h) was 46.8268 and 34.9985 and 36.9548 and the U2OS cell growth (10 uM, time 4 h) was 50.1057 and 41.3404 and 45.893. The U2OS cell growth (10 uM, time 6 h) was 53.6764 and 39.5271 and 46.3722, the U2OS cell growth (10 uM, time 8 h) was 53.6202 and 40.325 and 41.2301 and the U2OS cell growth (10 uM, time 22 h) was 67.6831 and 51.6047 and 55.6044. The U2OS cell growth (10 uM, time 24 h) was 70.4619 and 52.7077 and 58.0097, the U2OS cell growth (10 uM, time 26 h) was 68.9698 and 56.3356 and 56.962 and the U2OS cell growth (10 uM, time 28 h) was 67.5951 and 53.4169 and 58.8894. For the same compound, the U2OS cell growth (10 uM, time 30 h) was 68.8602 and 55.6654 and 63.1455, the U2OS cell growth (10 uM, time 32 h) was 68.8837 and 55.7024 and 62.8421 and the U2OS cell growth (10 uM, time 34 h) was 67.7441 and 53.6583 and 63.4925. The U2OS cell growth (10 uM, time 36 h) was 73.34 and 59.5441 and 62.7355, the U2OS cell growth (10 uM, time 38 h) was 67.7442 and 57.3625 and 57.6257 and the U2OS cell growth (10 uM, time 40 h) was 71.5354 and 61.3788 and 67.5692. For the same compound, the U2OS cell growth (10 uM, time 42 h) was 73.8761 and 59.0743 and 61.5168, the U2OS cell growth (10 uM, time 44 h) was 74.214 and 60.0999 and 63.4425 and the U2OS cell growth (10 uM, time 46 h) was 72.8535 and 55.2649 and 60.8845. The U2OS cell growth (10 uM, time 48 h) was 73.5449 and 63.3501 and 68.9579, the U2OS cell growth (10 uM, time 50 h) was 70.9743 and 62.8458 and 61.2746 and the U2OS cell growth (10 uM, time 52 h) was 74.6417 and 60.6048 and 69.8391. The U2OS cell growth (10 uM, time 54 h) was 75.3774 and 62.4224 and 65.6988, the U2OS cell growth (10 uM, time 56 h) was 77.5732 and 64.488 and 68.1134 and the U2OS cell growth (10 uM, time 58 h) was 78.9517 and 67.1316 and 73.5595. The U2OS cell growth (10 uM, time 60 h) was 76.9315 and 70.8366 and 74.5577, the U2OS cell growth (10 uM, time 62 h) was 79.5315 and 69.0042 and 76.0813 and the U2OS cell growth (10 uM, time 64 h) was 76.7502 and 71.3273 and 68.7113. The U2OS cell growth (10 uM, time 66 h) was 78.3996 and 67.3832 and 73.6796, the U2OS cell growth (10 uM, time 68 h) was 79.7849 and 73.5698 and 73.1338 and the U2OS cell growth (10 uM, time 70 h) was 82.866 and 75.877 and 67.6073. For the same compound, the U2OS cell growth (10 uM, time 72 h) was 84.159 and 79.6503 and 78.942.
